Measurements from the supplement of paper PMC10849652.
The list shows a part of the results.

By UniProt entry, the sequences of proteins in these tests, tags left out. Where a name states a change or a piece, a line headed by the entry shows the natural chain unless it says otherwise.
UniProt P46926: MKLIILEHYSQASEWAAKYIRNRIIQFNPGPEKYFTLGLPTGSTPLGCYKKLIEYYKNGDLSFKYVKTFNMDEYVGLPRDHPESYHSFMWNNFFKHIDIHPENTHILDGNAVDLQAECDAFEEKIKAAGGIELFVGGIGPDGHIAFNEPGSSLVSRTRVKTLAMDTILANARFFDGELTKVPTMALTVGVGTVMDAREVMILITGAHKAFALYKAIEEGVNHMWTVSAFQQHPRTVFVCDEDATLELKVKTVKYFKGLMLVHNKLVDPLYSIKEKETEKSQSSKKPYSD
UniProt P60983, whole entry, looked up: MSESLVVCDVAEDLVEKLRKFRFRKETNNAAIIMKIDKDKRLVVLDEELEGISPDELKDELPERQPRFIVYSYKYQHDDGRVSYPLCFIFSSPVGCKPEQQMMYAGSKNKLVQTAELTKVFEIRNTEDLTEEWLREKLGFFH
UniProt Q86SX6: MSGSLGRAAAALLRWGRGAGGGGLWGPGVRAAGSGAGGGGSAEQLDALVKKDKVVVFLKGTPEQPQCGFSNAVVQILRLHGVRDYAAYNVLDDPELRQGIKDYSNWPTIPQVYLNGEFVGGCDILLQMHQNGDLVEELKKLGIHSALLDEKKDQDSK
UniProt Q86VQ1: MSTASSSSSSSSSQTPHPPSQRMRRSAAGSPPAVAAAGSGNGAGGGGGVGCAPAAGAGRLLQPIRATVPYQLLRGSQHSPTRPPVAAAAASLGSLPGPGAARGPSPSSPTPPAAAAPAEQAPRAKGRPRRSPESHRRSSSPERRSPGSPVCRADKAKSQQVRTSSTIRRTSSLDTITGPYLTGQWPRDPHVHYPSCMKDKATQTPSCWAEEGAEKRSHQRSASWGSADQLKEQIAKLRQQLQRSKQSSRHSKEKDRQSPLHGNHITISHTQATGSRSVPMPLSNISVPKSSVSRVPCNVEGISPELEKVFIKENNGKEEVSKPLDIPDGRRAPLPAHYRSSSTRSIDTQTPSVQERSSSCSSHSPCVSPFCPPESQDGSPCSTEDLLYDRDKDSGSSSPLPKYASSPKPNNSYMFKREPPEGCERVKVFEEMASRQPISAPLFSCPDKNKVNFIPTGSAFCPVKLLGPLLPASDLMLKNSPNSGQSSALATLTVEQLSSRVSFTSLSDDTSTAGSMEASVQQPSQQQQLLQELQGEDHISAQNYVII
UniProt Q9Y692: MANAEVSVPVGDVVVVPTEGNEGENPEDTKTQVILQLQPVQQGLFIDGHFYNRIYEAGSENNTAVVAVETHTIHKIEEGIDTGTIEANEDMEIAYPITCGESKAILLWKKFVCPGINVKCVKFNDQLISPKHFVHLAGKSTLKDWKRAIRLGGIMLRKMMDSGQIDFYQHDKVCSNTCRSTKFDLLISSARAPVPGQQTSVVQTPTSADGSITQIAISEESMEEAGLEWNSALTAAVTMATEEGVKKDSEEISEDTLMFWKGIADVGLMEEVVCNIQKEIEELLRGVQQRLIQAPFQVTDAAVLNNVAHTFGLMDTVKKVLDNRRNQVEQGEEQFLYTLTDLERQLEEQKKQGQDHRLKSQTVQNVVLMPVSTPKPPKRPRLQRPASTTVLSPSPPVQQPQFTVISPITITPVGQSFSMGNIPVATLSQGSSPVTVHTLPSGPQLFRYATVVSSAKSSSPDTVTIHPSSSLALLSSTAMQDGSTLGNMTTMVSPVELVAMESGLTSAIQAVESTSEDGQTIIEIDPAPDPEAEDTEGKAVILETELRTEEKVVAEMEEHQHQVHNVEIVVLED
UniProt P13224: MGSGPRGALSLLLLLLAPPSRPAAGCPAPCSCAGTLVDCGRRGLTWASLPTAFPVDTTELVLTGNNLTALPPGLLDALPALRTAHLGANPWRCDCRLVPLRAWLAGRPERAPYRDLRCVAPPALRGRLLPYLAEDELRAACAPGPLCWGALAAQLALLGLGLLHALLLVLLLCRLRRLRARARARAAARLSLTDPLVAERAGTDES
UniProt Q8N2G8: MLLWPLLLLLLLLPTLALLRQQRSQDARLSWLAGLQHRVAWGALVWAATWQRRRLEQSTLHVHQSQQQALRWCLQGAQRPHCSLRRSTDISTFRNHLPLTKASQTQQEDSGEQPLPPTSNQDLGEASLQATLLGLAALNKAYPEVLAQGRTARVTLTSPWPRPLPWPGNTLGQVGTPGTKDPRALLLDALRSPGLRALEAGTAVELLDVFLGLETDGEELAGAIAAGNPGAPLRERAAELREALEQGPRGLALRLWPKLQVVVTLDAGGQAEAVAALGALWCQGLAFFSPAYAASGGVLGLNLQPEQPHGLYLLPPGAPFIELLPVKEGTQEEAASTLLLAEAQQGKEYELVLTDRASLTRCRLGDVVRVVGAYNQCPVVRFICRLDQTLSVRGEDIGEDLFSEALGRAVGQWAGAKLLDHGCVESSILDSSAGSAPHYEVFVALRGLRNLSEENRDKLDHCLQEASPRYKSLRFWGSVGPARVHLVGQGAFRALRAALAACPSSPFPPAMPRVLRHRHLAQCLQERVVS
UniProt Q9NPB8: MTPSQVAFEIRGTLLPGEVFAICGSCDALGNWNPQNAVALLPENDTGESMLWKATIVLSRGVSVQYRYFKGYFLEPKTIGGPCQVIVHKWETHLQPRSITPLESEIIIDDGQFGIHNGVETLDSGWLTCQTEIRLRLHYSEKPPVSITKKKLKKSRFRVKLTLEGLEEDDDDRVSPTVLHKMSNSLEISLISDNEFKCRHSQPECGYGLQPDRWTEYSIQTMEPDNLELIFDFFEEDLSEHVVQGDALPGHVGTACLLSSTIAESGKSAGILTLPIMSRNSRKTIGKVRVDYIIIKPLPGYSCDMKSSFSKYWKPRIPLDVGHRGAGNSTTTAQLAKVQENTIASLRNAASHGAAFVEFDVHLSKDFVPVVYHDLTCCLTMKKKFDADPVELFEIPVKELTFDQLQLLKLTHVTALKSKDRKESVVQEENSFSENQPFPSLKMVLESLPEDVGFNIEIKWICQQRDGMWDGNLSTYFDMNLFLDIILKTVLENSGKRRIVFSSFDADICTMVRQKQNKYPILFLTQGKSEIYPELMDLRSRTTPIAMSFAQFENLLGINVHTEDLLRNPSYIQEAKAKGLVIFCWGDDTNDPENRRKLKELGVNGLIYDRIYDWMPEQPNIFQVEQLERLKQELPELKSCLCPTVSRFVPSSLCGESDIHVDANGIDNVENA
UniProt Q8IW92: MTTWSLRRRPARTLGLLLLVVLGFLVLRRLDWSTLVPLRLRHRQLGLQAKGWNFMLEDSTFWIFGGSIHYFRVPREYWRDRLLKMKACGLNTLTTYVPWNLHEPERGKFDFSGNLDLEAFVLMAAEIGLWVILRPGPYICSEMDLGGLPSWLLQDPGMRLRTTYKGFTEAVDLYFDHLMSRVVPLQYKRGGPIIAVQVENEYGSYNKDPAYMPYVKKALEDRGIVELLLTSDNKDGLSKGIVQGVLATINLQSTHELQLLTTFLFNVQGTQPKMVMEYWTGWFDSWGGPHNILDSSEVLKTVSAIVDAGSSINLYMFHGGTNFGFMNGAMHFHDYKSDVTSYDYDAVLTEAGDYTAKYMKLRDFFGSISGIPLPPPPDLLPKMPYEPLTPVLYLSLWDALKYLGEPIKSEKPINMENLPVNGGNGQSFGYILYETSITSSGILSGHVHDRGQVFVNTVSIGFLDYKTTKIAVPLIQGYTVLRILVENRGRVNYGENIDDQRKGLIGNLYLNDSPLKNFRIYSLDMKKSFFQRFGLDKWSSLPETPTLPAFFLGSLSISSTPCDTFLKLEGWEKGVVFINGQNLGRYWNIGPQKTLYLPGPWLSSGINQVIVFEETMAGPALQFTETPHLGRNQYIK
UniProt P04899, whole entry, looked up: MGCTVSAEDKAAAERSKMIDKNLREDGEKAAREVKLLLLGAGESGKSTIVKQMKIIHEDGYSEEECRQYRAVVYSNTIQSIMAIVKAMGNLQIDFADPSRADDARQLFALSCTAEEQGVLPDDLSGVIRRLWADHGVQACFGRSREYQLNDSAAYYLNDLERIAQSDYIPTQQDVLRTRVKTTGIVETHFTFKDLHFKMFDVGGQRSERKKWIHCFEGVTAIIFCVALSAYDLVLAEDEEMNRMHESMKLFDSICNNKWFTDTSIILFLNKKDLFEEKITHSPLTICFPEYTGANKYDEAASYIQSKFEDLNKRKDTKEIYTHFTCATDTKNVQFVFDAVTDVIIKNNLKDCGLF
UniProt Q8TBA6: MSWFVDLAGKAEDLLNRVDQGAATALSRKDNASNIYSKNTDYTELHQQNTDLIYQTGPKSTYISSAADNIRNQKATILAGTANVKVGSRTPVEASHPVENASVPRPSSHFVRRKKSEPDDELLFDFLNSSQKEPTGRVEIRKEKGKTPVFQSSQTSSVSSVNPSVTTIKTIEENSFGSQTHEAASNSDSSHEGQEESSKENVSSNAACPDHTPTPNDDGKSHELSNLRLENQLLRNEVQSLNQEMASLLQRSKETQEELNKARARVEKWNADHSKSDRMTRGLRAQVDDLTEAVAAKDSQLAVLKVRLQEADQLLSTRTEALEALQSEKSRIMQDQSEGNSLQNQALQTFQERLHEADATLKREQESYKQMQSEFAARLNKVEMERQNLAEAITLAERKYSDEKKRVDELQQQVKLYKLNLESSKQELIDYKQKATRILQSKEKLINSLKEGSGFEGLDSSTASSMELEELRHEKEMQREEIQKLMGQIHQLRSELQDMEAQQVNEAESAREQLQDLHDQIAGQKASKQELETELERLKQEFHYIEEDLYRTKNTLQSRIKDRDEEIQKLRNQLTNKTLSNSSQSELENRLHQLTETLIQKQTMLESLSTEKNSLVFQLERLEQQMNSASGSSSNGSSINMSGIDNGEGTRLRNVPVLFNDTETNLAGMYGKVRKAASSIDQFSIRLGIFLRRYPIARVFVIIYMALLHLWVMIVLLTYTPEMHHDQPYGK
UniProt O14908: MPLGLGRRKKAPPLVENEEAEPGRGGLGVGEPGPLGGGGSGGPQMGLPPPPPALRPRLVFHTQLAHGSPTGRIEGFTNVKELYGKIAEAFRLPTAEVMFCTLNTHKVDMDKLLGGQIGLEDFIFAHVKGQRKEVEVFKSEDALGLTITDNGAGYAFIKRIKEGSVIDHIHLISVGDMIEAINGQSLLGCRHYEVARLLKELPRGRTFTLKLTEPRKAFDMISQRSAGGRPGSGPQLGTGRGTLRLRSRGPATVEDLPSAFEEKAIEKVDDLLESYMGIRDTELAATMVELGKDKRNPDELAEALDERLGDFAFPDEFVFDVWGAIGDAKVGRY
UniProt O94925: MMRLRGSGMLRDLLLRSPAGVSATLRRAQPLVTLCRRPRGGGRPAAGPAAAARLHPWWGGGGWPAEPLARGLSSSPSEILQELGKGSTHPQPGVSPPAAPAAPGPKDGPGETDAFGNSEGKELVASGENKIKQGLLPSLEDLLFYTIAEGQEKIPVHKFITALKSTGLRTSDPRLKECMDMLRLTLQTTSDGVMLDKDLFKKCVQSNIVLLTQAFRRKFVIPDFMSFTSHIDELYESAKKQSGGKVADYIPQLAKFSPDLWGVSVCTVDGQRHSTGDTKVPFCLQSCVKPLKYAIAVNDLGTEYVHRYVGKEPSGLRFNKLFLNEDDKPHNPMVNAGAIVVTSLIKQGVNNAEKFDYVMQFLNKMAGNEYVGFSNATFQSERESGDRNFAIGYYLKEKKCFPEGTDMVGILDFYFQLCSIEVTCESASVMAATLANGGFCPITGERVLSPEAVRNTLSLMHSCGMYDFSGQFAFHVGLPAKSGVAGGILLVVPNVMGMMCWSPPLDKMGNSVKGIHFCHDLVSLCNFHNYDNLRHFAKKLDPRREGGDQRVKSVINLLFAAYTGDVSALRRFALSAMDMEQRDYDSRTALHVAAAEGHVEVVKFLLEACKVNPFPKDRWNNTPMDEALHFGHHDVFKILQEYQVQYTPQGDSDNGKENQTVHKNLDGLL
UniProt Q5T3I0: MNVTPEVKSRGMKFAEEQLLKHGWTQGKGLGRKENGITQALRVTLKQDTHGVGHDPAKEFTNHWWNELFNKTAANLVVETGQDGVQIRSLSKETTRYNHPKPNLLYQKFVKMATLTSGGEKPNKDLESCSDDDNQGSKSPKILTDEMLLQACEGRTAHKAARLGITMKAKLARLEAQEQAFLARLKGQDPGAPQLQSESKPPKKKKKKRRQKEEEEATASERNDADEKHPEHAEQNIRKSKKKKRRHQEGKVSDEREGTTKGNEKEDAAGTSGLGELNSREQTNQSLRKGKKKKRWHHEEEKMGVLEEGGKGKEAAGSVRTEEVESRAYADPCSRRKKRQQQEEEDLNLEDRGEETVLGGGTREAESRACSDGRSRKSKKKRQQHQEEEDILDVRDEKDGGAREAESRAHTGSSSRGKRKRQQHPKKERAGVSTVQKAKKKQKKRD

Tests used:
Assay in all cases: log2 fold change, soluble protein after heating vs DMSO (PISA); higher = thermal stabilisation; K562 lysate, 10 uM; active = over 0.2 and 3.5 SD of the protein, either way, in both replicates (recomputed)
lapatinib = compound: CS(=O)(=O)CCNCc1ccc(-c2ccc3ncnc(Nc4ccc(OCc5cccc(F)c5)c(Cl)c4)c3c2)o1 [lapatinib]
Summary of the method: (§1)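 Log-two fold change in thermal stability relative to solvent controls is reported from duplicates. For each sample, crude K562 extract from dounce-homogenised pellets in PBS pH 7.4 with 1 mM MgCl2, at 1 mg/mL protein, was treated with 10 μM compound for 30 min. Aliquots heated for 3 min across 48°C-58°C were pooled, brought to 0.5% NP-40 at 4°C and cleared at 21,000xg for 90 min. The supernatant was quantified by TMTpro 16plex LC-MS/MS with channel sums equalised.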

pictilisib = compound: CS(=O)(=O)N1CCN(Cc2cc3nc(-c4cccc5[nH]ncc45)nc(N4CCOCC4)c3s2)CC1 [pictilisib]
Summary of the method: as §1

crizotinib = compound: C[C@@H](Oc1cc(-c2cnn(C3CCNCC3)c2)cnc1N)c1c(Cl)ccc(F)c1Cl [crizotinib]
Summary of the method: as §1

[1] = compound: C[C@H](C1=CC=C(C=C1)C(=O)NC2=C3C=CNC3=NC=C2)N
Summary of the method: as §1

duvelisib = compound: C[C@H](Nc1ncnc2nc[nH]c12)c1cc2cccc(Cl)c2c(=O)n1-c1ccccc1 [duvelisib]
Summary of the method: as §1

gandotinib = compound: Cc1cc(Nc2cc(CN3CCOCC3)c3nc(C)c(Cc4ccc(Cl)cc4F)n3n2)n[nH]1 [gandotinib]
Summary of the method: as §1

tozasertib = compound: Cc1cc(Nc2cc(N3CCN(C)CC3)nc(Sc3ccc(NC(=O)C4CC4)cc3)n2)n[nH]1 [tozasertib]
Summary of the method: as §1

doramapimod = compound: Cc1ccc(-n2nc(C(C)(C)C)cc2NC(=O)Nc2ccc(OCCN3CCOCC3)c3ccccc23)cc1 [doramapimod]
Summary of the method: as §1

bafetinib = compound: Cc1ccc(NC(=O)c2ccc(CN3CC[C@H](N(C)C)C3)c(C(F)(F)F)c2)cc1Nc1nccc(-c2cncnc2)n1 [bafetinib]
Summary of the method: as §1

[2] = compound: Cc1cccc(CC(=O)N2CCc3c2ccc(-c2cn(C)c4ncnc(N)c24)c3F)n1
Summary of the method: as §1

nilotinib = compound: Cc1cn(-c2cc(NC(=O)c3ccc(C)c(Nc4nccc(-c5cccnc5)n4)c3)cc(C(F)(F)F)c2)cn1 [nilotinib]
Summary of the method: as §1

[3] = compound: Cc1nc(Nc2n[nH]c3c2CN(C(=O)N[C@H](CN(C)C)c2ccccc2)C3(C)C)c2sccc2n1
Summary of the method: as §1

dasatinib = compound: Cc1nc(Nc2ncc(C(=O)Nc3c(C)cccc3Cl)s2)cc(N2CCN(CCO)CC2)n1 [dasatinib]
Summary of the method: as §1

[4] = compound: Cc1ncc(-c2ccnc(Nc3ccc(S(C)(=O)=O)cc3)n2)n1C(C)C
Summary of the method: as §1

[5] = compound: Cn1cc(-c2ccc3c(c2)CCN3C(=O)Cc2cccc(C(F)(F)F)c2)c2c(N)ncnc21
Summary of the method: as §1

quisinostat = compound: Cn1cc(CNCC2CCN(c3ncc(C(=O)NO)cn3)CC2)c2ccccc21 [quisinostat]
Summary of the method: as §1

tipifarnib = compound: Cn1cncc1[C@@](N)(c1ccc(Cl)cc1)c1ccc2c(c1)c(-c1cccc(Cl)c1)cc(=O)n2C [tipifarnib]
Summary of the method: as §1

[6] = compound: NC(=O)Nc1cc(-c2cccc(F)c2)sc1C(=O)N[C@H]1CCCNC1
Summary of the method: as §1

[7] = compound: NC(=O)c1cnc(N[C@@H]2CCCC[C@@H]2N)nc1Nc1cccc(-n2nccn2)c1
Summary of the method: as §1

[8] = compound: NC1(c2ccc(-c3nc4ccn5c(=O)[nH]nc5c4cc3-c3ccccc3)cc2)CCC1
Summary of the method: as §1

Measured: log2 fold change

GNPDA1 (UniProt P46926)
inactive: lapatinib -0.005 | pictilisib -0.006 | crizotinib 0.035 | [1] -0.056 | duvelisib -0.009 | gandotinib 0.012 | tozasertib 0 | doramapimod -0.02 | bafetinib -0.013 | [2] -0.005 | nilotinib -0.002 | [3] -0.008 | dasatinib 0.023 | [4] -0.033 | [5] -0.017 | quisinostat 0 | tipifarnib 0.026 | [6] -0.009 | [7] -0.002 | [8] -0.004

GMFB (UniProt P60983)
inactive: lapatinib -0.023 | pictilisib -0.019 | crizotinib 0.041 | [1] -0.002 | duvelisib 0.018 | gandotinib -0.003 | tozasertib 0.032 | doramapimod -0.007 | bafetinib 0.011 | [2] -0.04 | nilotinib 0.049 | [3] 0.037 | dasatinib 0.052 | [4] -0.016 | [5] 0.019 | quisinostat 0.033 | tipifarnib 0.046 | [6] 0.028 | [7] -0.018 | [8] -0.034

GLRX5 (UniProt Q86SX6)
inactive: lapatinib 0.123 | pictilisib -0.05 | crizotinib 0.014 | [1] 0.186 | duvelisib 0.027 | gandotinib -0.071 | tozasertib 0.034 | doramapimod 0 | bafetinib -0.024 | [2] -0.008 | nilotinib 0.051 | [3] 0.007 | dasatinib 0.06 | [4] 0.065 | [5] 0.017 | quisinostat -0.03 | tipifarnib 0.022 | [6] -0.089 | [7] -0.075 | [8] 0.027

GLCCI1 (UniProt Q86VQ1)
inactive: lapatinib 0.041 | pictilisib 0.015 | crizotinib -0.055 | [1] 0.013 | duvelisib -0.044 | gandotinib 0.049 | tozasertib 0.278 | doramapimod 0 | bafetinib 0.046 | [2] 0.097 | nilotinib 0.043 | [3] -0.075 | dasatinib 0.001 | [4] -0.029 | [5] 0.03 | quisinostat -0.049 | tipifarnib 0.01 | [6] 0.026 | [7] -0.003 | [8] 0.045

GIT2 (UniProt Q14161)
inactive: lapatinib -0.006 | pictilisib 0.025 | crizotinib 0.017 | [1] -0.017 | duvelisib 0.029 | gandotinib -0.037 | tozasertib 0.069 | doramapimod 0.018 | bafetinib -0.06 | [2] 0.048 | nilotinib -0.046 | [3] 0.057 | dasatinib 0.014 | [4] 0.01 | [5] 0.004 | quisinostat -0.067 | tipifarnib -0.045 | [6] -0.005 | [7] -0.066 | [8] 0.016

GMEB1 (UniProt Q9Y692)
inactive: lapatinib -0.033 | pictilisib -0.044 | crizotinib -0.007 | [1] -0.084 | duvelisib -0.001 | gandotinib 0.018 | tozasertib 0.009 | doramapimod 0 | bafetinib -0.002 | [2] 0.07 | nilotinib 0.042 | [3] -0.014 | dasatinib -0.007 | [4] 0.031 | [5] 0.014 | quisinostat 0.003 | tipifarnib -0.052 | [6] -0.001 | [7] -0.061 | [8] 0.042

GP1BB isoform 2 (UniProt P13224)
inactive: lapatinib 0.008 | pictilisib -0.048 | crizotinib 0.007 | [1] -0.01 | duvelisib 0.051 | gandotinib -0.046 | tozasertib 0.109 | doramapimod 0.029 | bafetinib -0.013 | [2] 0.006 | nilotinib 0.021 | [3] -0.027 | dasatinib 0.008 | [4] 0.032 | [5] 0.011 | quisinostat 0.03 | tipifarnib -0.061 | [6] -0.012 | [7] 0.027 | [8] 0.004

GHDC (UniProt Q8N2G8)
inactive: lapatinib 0.01 | pictilisib -0.057 | crizotinib -0.185 | [1] -0.018 | duvelisib -0.014 | gandotinib 0.061 | tozasertib 0.106 | doramapimod -0.037 | bafetinib -0.079 | [2] 0.005 | nilotinib -0.031 | [3] -0.04 | dasatinib -0.135 | [4] 0.034 | [5] -0.04 | quisinostat -0.033 | tipifarnib 0.039 | [6] 0.013 | [7] 0.006 | [8] 0.019

GPCPD1 (UniProt Q9NPB8)
inactive: lapatinib 0.031 | pictilisib -0.063 | crizotinib -0.076 | [1] -0.051 | duvelisib -0.052 | gandotinib 0.04 | tozasertib -0.027 | doramapimod 0.007 | bafetinib -0.119 | [2] 0.067 | nilotinib 0.07 | [3] -0.005 | dasatinib 0.036 | [4] -0.004 | [5] 0.039 | quisinostat -0.019 | tipifarnib 0.038 | [6] 0.082 | [7] -0.047 | [8] -0.056

GLB1L2 (UniProt Q8IW92)
inactive: lapatinib -0.016 | pictilisib -0.039 | crizotinib -0.006 | [1] -0.104 | duvelisib 0.033 | gandotinib 0.11 | tozasertib 0.116 | doramapimod 0.009 | bafetinib 0.032 | [2] 0.061 | nilotinib 0.063 | [3] 0.035 | dasatinib -0.017 | [4] 0.006 | [5] 0.006 | quisinostat -0.015 | tipifarnib 0.049 | [6] -0.032 | [7] -0.045 | [8] 0.028

GNAI2 (UniProt P04899)
inactive: lapatinib -0.014 | pictilisib -0.016 | crizotinib -0.042 | [1] 0.041 | duvelisib 0.024 | gandotinib -0.057 | tozasertib 0.03 | doramapimod 0.031 | bafetinib 0.005 | [2] -0.065 | nilotinib 0.041 | [3] -0.04 | dasatinib -0.004 | [4] 0.047 | [5] -0.006 | quisinostat -0.042 | tipifarnib 0.018 | [6] 0.045 | [7] 0.007 | [8] -0.006

GOLGA5 (UniProt Q8TBA6)
inactive: lapatinib 0.022 | pictilisib -0.047 | crizotinib -0.015 | [1] -0.039 | duvelisib 0.002 | gandotinib -0.061 | tozasertib 0.009 | doramapimod 0.025 | bafetinib -0.025 | [2] 0.002 | nilotinib 0.014 | [3] 0.021 | dasatinib 0.026 | [4] 0.023 | [5] -0.002 | quisinostat 0.024 | tipifarnib 0.025 | [6] -0.008 | [7] 0.024 | [8] -0.057

GIPC1 (UniProt O14908)
inactive: lapatinib -0.023 | pictilisib 0.005 | crizotinib 0.037 | [1] -0.092 | duvelisib 0.051 | gandotinib -0.01 | tozasertib 0.036 | doramapimod 0.021 | bafetinib -0.03 | [2] -0.014 | nilotinib 0.006 | [3] 0.011 | dasatinib 0.071 | [4] -0.014 | [5] -0.011 | quisinostat 0.046 | tipifarnib 0.042 | [6] -0.014 | [7] 0.026 | [8] -0.021

GLS isoform 3 (UniProt O94925)
inactive: lapatinib 0.029 | pictilisib -0.077 | crizotinib -0.04 | [1] 0.038 | duvelisib -0.021 | gandotinib -0.015 | tozasertib 0.041 | doramapimod -0.019 | bafetinib -0.015 | [2] 0.046 | nilotinib 0.005 | [3] 0.007 | dasatinib 0.087 | [4] -0.002 | [5] -0.006 | quisinostat -0.044 | tipifarnib -0.002 | [6] 0.092 | [7] 0.031 | [8] -0.033

Two records drawn at random from the list so far, as already listed:
GLS isoform 3 (UniProt O94925)
inactive: lapatinib 0.029 | pictilisib -0.077 | crizotinib -0.04 | [1] 0.038 | duvelisib -0.021 | gandotinib -0.015 | tozasertib 0.041 | doramapimod -0.019 | bafetinib -0.015 | [2] 0.046 | nilotinib 0.005 | [3] 0.007 | dasatinib 0.087 | [4] -0.002 | [5] -0.006 | quisinostat -0.044 | tipifarnib -0.002 | [6] 0.092 | [7] 0.031 | [8] -0.033

GNAI2 (UniProt P04899)
inactive: lapatinib -0.014 | pictilisib -0.016 | crizotinib -0.042 | [1] 0.041 | duvelisib 0.024 | gandotinib -0.057 | tozasertib 0.03 | doramapimod 0.031 | bafetinib 0.005 | [2] -0.065 | nilotinib 0.041 | [3] -0.04 | dasatinib -0.004 | [4] 0.047 | [5] -0.006 | quisinostat -0.042 | tipifarnib 0.018 | [6] 0.045 | [7] 0.007 | [8] -0.006

Continued.

GORASP2 isoform 3 (UniProt Q9H8Y8)
inactive: lapatinib -0.001 | pictilisib 0.014 | crizotinib -0.022 | [1] -0.15 | duvelisib 0.005 | gandotinib 0.048 | tozasertib 0.024 | doramapimod 0.036 | bafetinib -0.021 | [2] 0.131 | nilotinib -0.019 | [3] -0.023 | dasatinib -0.083 | [4] 0.027 | [5] -0.004 | quisinostat 0.024 | tipifarnib 0.045 | [6] 0.028 | [7] -0.004 | [8] 0.031

GPATCH4 isoform 3 (UniProt Q5T3I0)
inactive: lapatinib -0.079 | pictilisib 0.128 | crizotinib -0.032 | [1] 0.084 | duvelisib -0.063 | gandotinib -0.03 | tozasertib 0.029 | doramapimod 0.112 | bafetinib -0.045 | [2] -0.021 | nilotinib 0.004 | [3] 0.039 | dasatinib 0.036 | [4] 0.052 | [5] 0.01 | quisinostat -0.09 | tipifarnib -0.116 | [6] 0.036 | [7] -0.074 | [8] 0.004
